Reference: US20210214454A1
These are yes or no findings as the source states them, for the method shown. Some entries that bind do so weakly or less than the wild type. Blank lines part the entries; values can stand above or below the binder they belong to.

Sequences of proteins named here, by UniProt entry; tags and fusion partners are left off. A change or cut given only in a name is not applied to a line headed by its entry. A line that says so, or that is headed by a name, gives the form on record, which may keep a tag or linker.
cynomolgus CD40 protein expressed on CHO-S cells (G7PG38, form named): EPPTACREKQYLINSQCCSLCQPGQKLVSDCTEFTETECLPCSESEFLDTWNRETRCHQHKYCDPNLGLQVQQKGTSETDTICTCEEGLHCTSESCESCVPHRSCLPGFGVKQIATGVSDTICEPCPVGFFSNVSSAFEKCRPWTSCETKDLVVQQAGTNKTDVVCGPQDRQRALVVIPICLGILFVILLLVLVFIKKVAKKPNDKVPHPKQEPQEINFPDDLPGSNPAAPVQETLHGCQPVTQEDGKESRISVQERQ

Experiments:
[1] = target: cynomolgus CD40 protein expressed on CHO-S cells (cynomolgus) (UniProt G7PG38); assay: flow cytometry on CHO-S cells transiently expressing CD40
[2] = target: cynomolgus CD40 protein expressed on CHO-S cells (cynomolgus) (UniProt G7PG38); assay: flow cytometry on CHO-S cells transiently expressing cynomolgus CD40; AF647 anti-human IgG (H+L) secondary; GeoMean RL1-H

binding [1]: binds
binding [2]: binds
B1: antibody 15833 (antibody, human IgG1, kappa, L234A L235A, V domains shown)
VH: QVQLVESGGGVVQPGRSLRLSCAASGFTFSNYAMHWVRQAPGKGLEWVALISFDGSYKYYADSVKGRFTISRDNSKNTLYLQMNSLRAEDTAVYYCVKDAGYSSSWFFDYWGQGTLVTVSS
VL: DIQMTQSPSSVSASVGDRVTITCRASQDISSWLAWYQQKPGKAPKLLIYAASSLQSGVPSRFSGSGSGTDFTLTISSLQPEDFGNYYCQQANSFPWTFGQGTKVEIKR

binding [1]: binds
binding [2]: binds
B2: antibody 16154 (antibody, human IgG1, kappa, L234A L235A, V domains shown)
VH: EVQLVESGGGLVQPGGSLRLSCAASGFTFTSYWMSWVRQAPGKGLEWVANIKQDGSEKYYVDSVKGRFTISRDNAKNSLYLQMNSLRAEDTAVYYCARGPVAGPYWYFDLWGRGTLVTVSS
VL: AIQMTQSPSSLSASVGDRVTITCRASQGIRNDLGWYQQKPGKAPKLLIYAASSLQSGVPSRFSGSGSGTDFTLTISSLQPEDFATYYCLQDYHYPLTFGGGTKVEIKR
